Test results published in doi:10.1101/2025.08.21.670878.
No constants are given. Whether binding was seen depends on the method and setting. Binding seen in cells or lysates may run through a third protein. Some entries that bind do so weakly or less than the wild type.

Amino acid sequences for entries named in this document (tags omitted). A change or cut given only in a name is not applied to a line headed by its entry. Chains listed by the source or under a name are the forms on record and can include a tag or linker. Residues count along the entry.
UniProt Q9HAW4: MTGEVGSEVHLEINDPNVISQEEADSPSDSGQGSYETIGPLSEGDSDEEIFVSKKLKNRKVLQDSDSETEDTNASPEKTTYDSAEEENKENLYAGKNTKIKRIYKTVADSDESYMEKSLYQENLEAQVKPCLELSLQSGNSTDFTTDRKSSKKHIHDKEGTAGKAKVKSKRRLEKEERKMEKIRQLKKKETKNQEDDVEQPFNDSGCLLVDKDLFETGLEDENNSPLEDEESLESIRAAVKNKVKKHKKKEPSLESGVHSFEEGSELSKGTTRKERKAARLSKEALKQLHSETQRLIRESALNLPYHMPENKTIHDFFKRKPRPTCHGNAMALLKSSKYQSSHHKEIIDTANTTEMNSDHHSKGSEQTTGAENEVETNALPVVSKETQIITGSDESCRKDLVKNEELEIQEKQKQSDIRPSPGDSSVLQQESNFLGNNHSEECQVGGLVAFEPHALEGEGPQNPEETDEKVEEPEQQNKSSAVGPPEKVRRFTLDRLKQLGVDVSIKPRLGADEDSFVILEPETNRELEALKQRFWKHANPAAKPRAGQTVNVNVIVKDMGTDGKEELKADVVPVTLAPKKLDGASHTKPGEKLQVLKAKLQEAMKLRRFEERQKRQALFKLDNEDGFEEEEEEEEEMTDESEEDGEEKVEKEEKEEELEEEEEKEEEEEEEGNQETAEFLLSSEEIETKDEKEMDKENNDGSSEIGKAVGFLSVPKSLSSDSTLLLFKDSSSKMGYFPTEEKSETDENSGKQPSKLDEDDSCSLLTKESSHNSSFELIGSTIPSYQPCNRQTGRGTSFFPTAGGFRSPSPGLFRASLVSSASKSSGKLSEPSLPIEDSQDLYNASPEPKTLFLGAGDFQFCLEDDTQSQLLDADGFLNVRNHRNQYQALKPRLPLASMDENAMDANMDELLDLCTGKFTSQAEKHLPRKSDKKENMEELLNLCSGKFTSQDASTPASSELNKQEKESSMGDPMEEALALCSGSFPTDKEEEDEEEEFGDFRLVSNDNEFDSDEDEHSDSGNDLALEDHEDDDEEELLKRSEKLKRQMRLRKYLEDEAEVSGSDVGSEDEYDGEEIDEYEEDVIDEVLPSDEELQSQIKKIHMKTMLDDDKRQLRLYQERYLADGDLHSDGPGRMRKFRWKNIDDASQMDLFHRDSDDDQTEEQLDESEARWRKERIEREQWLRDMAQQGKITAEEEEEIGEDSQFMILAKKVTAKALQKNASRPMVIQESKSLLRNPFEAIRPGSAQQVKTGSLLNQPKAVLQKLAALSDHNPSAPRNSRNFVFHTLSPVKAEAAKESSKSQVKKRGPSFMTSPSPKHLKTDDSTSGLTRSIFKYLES
Flag-tagged wild-type Claspin C-terminal polypeptide (aa897-1339): residues 897-1339 of Q9HAW4
Flag-tagged ST/A Claspin C-terminal polypeptide (aa897-1339) (Q9HAW4, form named): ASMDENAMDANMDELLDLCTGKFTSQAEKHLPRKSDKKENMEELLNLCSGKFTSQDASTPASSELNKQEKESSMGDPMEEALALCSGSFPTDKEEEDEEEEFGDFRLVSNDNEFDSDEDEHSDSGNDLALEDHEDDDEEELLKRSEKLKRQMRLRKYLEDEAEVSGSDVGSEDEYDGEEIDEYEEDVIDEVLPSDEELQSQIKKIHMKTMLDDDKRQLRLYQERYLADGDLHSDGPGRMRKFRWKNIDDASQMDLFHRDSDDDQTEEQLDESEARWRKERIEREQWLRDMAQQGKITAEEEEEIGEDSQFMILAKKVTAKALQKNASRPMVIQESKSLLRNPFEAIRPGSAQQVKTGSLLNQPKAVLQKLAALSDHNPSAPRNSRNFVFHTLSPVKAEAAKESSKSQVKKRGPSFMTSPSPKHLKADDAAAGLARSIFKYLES
ST/A mutant Claspin, Flag-tagged, overexpressed in 293T cells (Q9HAW4, form named): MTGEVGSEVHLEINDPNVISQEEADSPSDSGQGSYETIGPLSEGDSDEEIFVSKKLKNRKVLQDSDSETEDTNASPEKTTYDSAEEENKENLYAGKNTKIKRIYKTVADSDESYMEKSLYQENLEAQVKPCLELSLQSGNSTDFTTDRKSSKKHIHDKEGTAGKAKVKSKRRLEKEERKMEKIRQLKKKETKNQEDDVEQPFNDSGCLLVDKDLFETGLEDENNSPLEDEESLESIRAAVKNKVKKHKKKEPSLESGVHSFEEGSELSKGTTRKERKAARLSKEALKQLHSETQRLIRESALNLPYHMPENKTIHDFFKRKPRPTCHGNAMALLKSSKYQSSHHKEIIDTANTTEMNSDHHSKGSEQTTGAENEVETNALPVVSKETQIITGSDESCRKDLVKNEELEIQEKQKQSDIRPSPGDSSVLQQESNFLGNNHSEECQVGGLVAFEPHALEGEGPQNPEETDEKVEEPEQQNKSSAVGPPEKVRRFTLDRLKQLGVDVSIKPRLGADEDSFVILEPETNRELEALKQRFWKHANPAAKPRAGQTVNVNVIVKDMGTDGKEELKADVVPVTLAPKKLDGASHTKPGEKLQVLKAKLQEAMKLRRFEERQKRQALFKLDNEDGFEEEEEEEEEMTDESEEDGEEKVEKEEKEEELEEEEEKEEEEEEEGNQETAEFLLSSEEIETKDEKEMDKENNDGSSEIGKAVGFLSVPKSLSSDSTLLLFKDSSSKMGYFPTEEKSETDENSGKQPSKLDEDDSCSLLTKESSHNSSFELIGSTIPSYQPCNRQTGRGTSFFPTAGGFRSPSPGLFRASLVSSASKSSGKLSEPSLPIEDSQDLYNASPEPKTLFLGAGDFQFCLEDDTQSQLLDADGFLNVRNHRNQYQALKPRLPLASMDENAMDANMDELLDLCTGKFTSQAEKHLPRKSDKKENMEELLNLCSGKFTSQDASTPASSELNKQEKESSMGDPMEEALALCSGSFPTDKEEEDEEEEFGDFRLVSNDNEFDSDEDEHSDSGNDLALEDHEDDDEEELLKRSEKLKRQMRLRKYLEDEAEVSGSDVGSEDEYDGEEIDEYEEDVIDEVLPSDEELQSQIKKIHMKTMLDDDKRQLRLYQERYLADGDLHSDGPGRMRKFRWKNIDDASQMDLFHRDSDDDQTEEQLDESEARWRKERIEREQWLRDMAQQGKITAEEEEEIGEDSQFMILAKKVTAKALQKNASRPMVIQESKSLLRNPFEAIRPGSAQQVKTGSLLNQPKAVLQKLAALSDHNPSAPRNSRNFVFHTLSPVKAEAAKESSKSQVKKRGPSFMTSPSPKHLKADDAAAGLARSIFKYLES
UniProt O00311: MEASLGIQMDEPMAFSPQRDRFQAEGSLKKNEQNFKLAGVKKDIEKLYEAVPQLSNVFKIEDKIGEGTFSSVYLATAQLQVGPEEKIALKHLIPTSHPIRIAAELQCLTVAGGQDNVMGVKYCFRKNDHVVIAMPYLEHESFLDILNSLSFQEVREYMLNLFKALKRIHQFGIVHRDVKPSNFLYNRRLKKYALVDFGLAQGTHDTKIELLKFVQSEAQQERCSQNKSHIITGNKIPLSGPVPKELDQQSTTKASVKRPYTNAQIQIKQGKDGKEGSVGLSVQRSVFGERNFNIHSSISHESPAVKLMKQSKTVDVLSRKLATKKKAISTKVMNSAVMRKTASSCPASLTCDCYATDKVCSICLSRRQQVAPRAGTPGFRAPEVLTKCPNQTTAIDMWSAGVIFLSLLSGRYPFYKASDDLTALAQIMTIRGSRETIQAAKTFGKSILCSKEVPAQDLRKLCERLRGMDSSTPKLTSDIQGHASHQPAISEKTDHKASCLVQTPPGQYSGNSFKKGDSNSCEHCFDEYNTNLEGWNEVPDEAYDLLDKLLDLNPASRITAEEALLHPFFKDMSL
UniProt Q13535: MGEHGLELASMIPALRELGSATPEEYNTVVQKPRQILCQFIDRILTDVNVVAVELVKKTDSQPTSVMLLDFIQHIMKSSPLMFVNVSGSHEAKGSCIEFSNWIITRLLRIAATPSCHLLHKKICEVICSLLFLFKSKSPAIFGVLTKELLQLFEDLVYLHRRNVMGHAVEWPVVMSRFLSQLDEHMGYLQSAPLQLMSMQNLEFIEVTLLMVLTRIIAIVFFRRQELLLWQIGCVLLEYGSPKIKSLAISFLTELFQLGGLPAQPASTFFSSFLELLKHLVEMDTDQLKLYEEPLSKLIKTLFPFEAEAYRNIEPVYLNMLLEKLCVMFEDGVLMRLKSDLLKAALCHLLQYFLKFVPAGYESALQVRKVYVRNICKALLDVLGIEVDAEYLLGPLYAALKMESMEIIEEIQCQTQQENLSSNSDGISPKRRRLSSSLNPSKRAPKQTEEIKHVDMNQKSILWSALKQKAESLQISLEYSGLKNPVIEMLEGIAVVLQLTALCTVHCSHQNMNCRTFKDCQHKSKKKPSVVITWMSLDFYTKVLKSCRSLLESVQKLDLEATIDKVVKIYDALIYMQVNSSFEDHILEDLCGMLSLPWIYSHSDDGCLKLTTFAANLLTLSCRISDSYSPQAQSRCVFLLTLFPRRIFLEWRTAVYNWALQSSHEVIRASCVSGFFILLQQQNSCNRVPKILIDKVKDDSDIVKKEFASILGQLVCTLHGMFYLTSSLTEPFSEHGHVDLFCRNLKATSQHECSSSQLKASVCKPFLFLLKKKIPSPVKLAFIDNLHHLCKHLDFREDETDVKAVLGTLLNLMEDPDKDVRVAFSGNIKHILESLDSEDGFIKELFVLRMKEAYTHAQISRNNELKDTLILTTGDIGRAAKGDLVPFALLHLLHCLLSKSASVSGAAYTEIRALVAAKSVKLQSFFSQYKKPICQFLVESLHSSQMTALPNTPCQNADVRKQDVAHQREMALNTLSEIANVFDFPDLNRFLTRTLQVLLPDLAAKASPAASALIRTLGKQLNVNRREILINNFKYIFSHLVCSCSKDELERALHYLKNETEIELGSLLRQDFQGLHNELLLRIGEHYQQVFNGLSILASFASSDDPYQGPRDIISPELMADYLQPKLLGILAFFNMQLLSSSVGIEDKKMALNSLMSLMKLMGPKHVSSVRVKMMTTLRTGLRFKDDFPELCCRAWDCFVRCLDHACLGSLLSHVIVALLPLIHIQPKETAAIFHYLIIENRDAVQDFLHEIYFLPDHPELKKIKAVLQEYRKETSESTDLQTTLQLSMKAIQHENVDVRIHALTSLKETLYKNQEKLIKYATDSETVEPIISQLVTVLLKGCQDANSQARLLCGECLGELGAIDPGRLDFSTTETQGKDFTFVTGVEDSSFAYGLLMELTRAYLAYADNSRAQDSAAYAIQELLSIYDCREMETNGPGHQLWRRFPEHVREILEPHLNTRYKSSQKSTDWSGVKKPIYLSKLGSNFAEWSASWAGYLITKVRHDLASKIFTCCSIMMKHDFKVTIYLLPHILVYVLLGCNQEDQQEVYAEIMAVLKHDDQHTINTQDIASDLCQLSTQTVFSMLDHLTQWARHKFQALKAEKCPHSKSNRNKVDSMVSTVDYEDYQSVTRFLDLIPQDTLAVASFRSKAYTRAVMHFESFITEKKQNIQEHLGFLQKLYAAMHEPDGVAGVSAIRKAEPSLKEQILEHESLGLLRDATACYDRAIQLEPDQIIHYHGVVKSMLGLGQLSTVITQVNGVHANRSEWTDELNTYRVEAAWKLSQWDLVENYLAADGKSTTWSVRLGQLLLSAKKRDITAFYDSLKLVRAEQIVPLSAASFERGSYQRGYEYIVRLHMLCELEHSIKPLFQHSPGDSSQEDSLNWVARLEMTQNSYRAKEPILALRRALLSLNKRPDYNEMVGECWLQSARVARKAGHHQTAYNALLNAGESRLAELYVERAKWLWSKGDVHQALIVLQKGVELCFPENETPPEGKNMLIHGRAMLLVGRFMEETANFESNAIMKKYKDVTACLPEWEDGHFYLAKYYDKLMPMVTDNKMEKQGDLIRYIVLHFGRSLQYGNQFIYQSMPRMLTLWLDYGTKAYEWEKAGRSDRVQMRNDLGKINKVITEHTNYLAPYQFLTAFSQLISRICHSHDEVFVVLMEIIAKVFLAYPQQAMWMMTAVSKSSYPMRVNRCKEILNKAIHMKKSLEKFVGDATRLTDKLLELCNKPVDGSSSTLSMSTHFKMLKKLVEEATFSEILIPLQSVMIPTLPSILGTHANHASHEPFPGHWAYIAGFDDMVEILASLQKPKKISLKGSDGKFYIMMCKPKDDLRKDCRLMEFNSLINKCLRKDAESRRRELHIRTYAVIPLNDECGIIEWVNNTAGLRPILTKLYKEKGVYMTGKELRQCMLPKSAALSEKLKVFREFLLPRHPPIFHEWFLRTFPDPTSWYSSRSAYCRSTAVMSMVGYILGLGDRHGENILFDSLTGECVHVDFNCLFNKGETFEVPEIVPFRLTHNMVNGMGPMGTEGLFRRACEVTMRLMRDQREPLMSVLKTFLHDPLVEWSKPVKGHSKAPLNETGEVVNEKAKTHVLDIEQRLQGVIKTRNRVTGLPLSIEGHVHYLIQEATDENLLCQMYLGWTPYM

Assays:
Assay in all cases: co-IP
[1] = target: Flag-tagged ST/A Claspin C-terminal polypeptide (aa897-1339) (human) (UniProt Q9HAW4)
[2] = target: Flag-tagged wild-type Claspin C-terminal polypeptide (aa897-1339) (human) (UniProt Q9HAW4)
[3] = target: ST/A mutant Claspin, Flag-tagged, overexpressed in 293T cells (human) (UniProt Q9HAW4)
[4] = target: wild-type Claspin-Flag (stably expressed in HCT116 Claspin-myc-AID cells) (human) (UniProt Q9HAW4)

“Cdc7 (in 293T cells) (from UniProt O00311 1-574) (enzyme)” was tested, and the binding [1] was “binds” and the binding [2] was “binds”.

“ATR (Ataxia Telangiectasia and Rad3-related) (from UniProt Q13535 1-2644) (enzyme)” was tested, and the binding [3] was “binds”.

“Cdc7 (in HCT116 Claspin-myc-AID cells) (from UniProt O00311 1-574) (enzyme)” was tested, and the binding [4] was “binds”.
